## Primary screen of a compound library

Chains of the proteins cited; added tags and fusions are not shown.
UniProt E9BF75, entry or part of it: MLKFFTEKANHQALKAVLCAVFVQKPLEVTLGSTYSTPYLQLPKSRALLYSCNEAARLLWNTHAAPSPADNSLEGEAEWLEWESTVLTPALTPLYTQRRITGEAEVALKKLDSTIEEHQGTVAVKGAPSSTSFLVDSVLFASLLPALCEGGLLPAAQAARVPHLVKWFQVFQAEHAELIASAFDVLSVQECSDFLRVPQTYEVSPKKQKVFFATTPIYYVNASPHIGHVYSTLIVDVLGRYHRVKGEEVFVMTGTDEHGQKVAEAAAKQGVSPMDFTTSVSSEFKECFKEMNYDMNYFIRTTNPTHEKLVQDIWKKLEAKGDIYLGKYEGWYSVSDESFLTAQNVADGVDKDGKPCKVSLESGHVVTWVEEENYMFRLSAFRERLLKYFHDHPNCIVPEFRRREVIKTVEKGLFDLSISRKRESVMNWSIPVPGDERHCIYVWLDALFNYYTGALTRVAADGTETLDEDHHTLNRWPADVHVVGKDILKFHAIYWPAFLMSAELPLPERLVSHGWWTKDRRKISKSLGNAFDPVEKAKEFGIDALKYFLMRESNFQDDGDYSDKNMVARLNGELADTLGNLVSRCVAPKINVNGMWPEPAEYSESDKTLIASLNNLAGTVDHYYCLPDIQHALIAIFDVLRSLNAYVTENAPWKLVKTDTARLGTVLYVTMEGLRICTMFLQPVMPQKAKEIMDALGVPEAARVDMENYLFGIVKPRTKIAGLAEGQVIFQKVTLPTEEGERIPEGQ

Measurements from “University of Dundee, Small-Polar-MMV Screening Library” (2021), ChEMBL document CHEMBL3988442.

LdMetRS: 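Primary screen of methionyl-tRNA synthetase; the read-out is not stated. Target: Methionyl-tRNA synthetase (putative), Leishmania donovani (UniProt E9BF75). The test concentration is not given. The values are filed as inhibition. Size under these conditions: about 68,000 compounds, about 24 of them at 50% or above in at least one test.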
Mtb heat-shock: 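Assay on Mycobacterium tuberculosis, filed only as a heat shock assay from Cornell; the read-out is not stated. The concentration is filed as 10 mM, unlikely as a test dose, so the dose is not known. Higher reads as stronger inhibition (inferred: compounds with an IC50 in retests scored well above the rest). Of about 69,000 compounds tested this way, about 930 (1.4%) reached 50% or more in at least one test.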

Results are percentages, as filed.
The record does not define 0% and 100%; most values in the screen are far below 50% and negative numbers occur (in some assays of this library far below -100).
The compounds are a random part of those screened.
A dash means the value is not listed here; it may have been measured.

SMILES | LdMetRS | Mtb heat-shock
COCC(=O)N1CCCCC1c1nccc(C)n1 (stereo unspecified) | 3.236% | -7.731%
CN(Cc1nnc(C2CC2)o1)C(c1ccc(F)cc1)c1cccnc1 (stereo unspecified) | 5.072% | 3.687%
c1ccc(C2CCCN2Cc2nnnn2C2CC2)cc1 (stereo unspecified) | 8.85% | 16.01%
O=C1NCCCC12CCN(Cc1ccc(-c3ccccc3)s1)C2 (stereo unspecified) | 9.756% | 9.831%
Cn1cnc2c1CCN(Cc1csc(Cc3ccccc3)n1)C2 | 27.43% | 13.38%
CN(C)C(=O)N1CC2(CCOCC2)c2cc(NS(=O)(=O)C3CC3)ccc21 | 3.623% | 3.499%
CN1CCN(Cc2cnc3n2CCN(Cc2cccnc2)CC3)CC1 | 8.629% | -
CCN1CC(COC(=O)c2ccc(N(C)C)cc2F)CC1=O (stereo unspecified) | 2.326% | -0.9675%
O=C(O)C(F)(F)F.[H][C@@]12CCN(CC3CCOCC3)C[C@@]1([H])O[C@H](c1nc(C)no1)C2 | - | 11.51%
O=C(c1sccc1Br)N1CCOCC1 | 19.23% | 1.133%
Cc1nc(C)n(C2CCCN(C(=O)c3ccnc(N(C)C)c3)C2)n1 (stereo unspecified) | 8.571% | -10.73%
O=S(=O)(NCCCn1cccn1)c1ccc2c(c1)CCC2 | 13.01% | 24.86%
O=C(O)C(F)(F)F.[H][C@@]12OCCN(C(=O)C3CCC3)[C@@]1([H])CC[C@H]2OCCCn1cccn1 | - | -5.958%
[H][C@]12CC[C@]([H])(CN(C3Cc4ccccc4C3)C1)N(Cc1cc(CC)no1)C2 | - | 30.93%
Cc1cc(C2CCN(S(=O)(=O)c3cn(C)cn3)CC2)ccn1 | 12.22% | -3.026%
Cc1cc(C(=O)Nc2cnn(CC(F)(F)F)c2)nc(N(C)C)n1 | 30.4% | 12.66%
COCCNS(=O)(=O)c1ccc(Cl)c(C(=O)N(C)Cc2ccsc2)c1 | 3.896% | -14.75%
CCn1c(CN(C)C(=O)c2ccc(O)nc2)nc2ccccc21 | 10.22% | -1.018%
O=C(O)C(F)(F)F.O=C(O)C(F)(F)F.OCCN1CC2(CCN(c3ccccc3)C2)C1 | - | 2.857%
[H][C@]12CC[C@@]3(N=C(C)NC3=O)[C@@]1([H])CN(CC(C)C)C2 | - | 3.811%
CO[C@@H]1CCN(C(=O)c2cnoc2C)[C@H]1Cc1ccccc1 | 4.396% | -11.08%
CC(=O)N1CCOCC2(C1)CN(S(C)(=O)=O)CCO2 (stereo unspecified) | 9.783% | -14.16%
[H][C@]12CCN(Cc3ccncc3)C(=O)[C@]1([H])CN(CC)C2 | - | -11.44%
COCCOc1nc(-c2ccccc2Cl)no1 | 17.37% | 3.403%
C=C(C)COc1ccccc1NC(=O)N1CCCCC1CO (stereo unspecified) | 11% | -56.09%
COc1ncccc1CNC(=O)CN1CCCCCC1=O | 18.16% | 5.149%
CC(Cn1cccn1)NCc1csc(-c2cccs2)n1 (stereo unspecified) | 9.804% | 54.31%
N#CCCN(C(=O)CCc1cscn1)c1ccc2c(c1)OCCO2 | 3.631% | -32.31%
CS(=O)(=O)NCCNC(=O)c1cnc(-c2ccccc2)nc1 | 2.135% | 23.03%
CNc1oc(-c2ccc(S(=O)(=O)N(C)C)o2)nc1C#N | 5.691% | -18.56%
Cc1ccc(CN2CC[C@H]3CO[C@H](CN4CCN(C)CC4)[C@H]3C2)o1 | 10.08% | -
Cc1ncc2c(n1)CCN(Cc1nc3ccccc3o1)C2 | 16.08% | 3.495%
CN1CCC2(CCCN(c3nccc(C(F)(F)F)n3)C2)CC1.O=C(O)C(F)(F)F | - | -7.12%
COCc1noc(C2(c3cccc(Cl)c3)CCOCC2)n1 | -9.239% | -14.77%
Cn1nc(C2CCN(C(=O)Cc3ccsc3)CC2)c2cccnc21 | 13.54% | -
OC1COCCN(Cc2cc(-c3ccccc3OC(F)(F)F)no2)C1 (stereo unspecified) | 5.621% | -12.25%
Cc1ccc(N2CC[C@H]3CN(C(=O)c4ccn(C)n4)C[C@H]3C2)nn1 | 6.162% | -
CN(Cc1cccs1)C(=O)c1ccc(=O)n(C)c1 | 16.42% | -10.97%
COc1ccc(C2=CCN(C(=O)CN(C)CC(C)C#N)CC2)cc1 (stereo unspecified) | 6.103% | 9.356%
CCc1ccc2ncn(Cc3ncc[nH]3)c(=O)c2c1 | 11.76% | -27.96%
CN(C)CCN(C)C1CCCN(C(=O)c2ccc(Cn3ccnc3)o2)C1 (stereo unspecified) | 8.635% | 0.3034%
CN1N=C(C(=O)N2CCCC(CCc3c(F)cccc3F)C2)CCC1=O (stereo unspecified) | 14.86% | 7.835%
CCSc1ncc(CN(Cc2cnn(C)c2)CC(C)C)cn1 | 14.07% | 1.728%
Cc1nc(C)n(CC2CN(Cc3cccs3)Cc3nccn3C2)n1 (stereo unspecified) | 0.3436% | -
Br.O=C(CN(C1=NCCCCC1)c1ccc(Cl)cc1)c1ccccc1 | - | 102%
CS(=O)(=O)N1CCO[C@@H]2CCN(Cc3ccncc3)CC[C@H]21 | 3.279% | -
O=C(CN1CCC2(CCCCC2)C1)NCC(F)(F)F | 11.24% | 23.13%
Cc1cn2nc(N3CCN(Cc4nc(C(C)C)no4)CC3)sc2n1 | 7.163% | -1.206%
NC(=O)CCOc1nc(-c2ccccc2Cl)no1 | 4.433% | -0.7023%
O=C(NCC1(CO)CC1)c1cccc2ccccc12 | 6.404% | 5.404%
CC(C)CN(CC(O)c1ccccc1)C(=O)NC(C)C (stereo unspecified) | 15.89% | 3.943%
CN(C)CCOCc1cncc2c1CCN(C1CCOCC1)C2.O=C(O)C(F)(F)F.O=C(O)C(F)(F)F.O=C(O)C(F)(F)F | - | 38.62%
CC(=O)N1CCC2(CCCN(Cc3ccc(Cl)c(C(F)(F)F)c3)C2)C1 (stereo unspecified) | 19.31% | 11.73%
O=C(Cc1ccccc1Cl)NCC1CCN(Cc2ccsc2)CC1 | 14.08% | 10.58%
CC(C)c1nnc(NC(=O)CCc2cc(F)ccc2F)[nH]1 | 9.51% | -5.453%
O=S1(=O)NC(C2CCN(Cc3ccccn3)CC2)Nc2ccccc21 (stereo unspecified) | 9.709% | -33.54%
CC(=O)N1CCC(C(=O)c2cc(C)cnc2N)CC1 | 17.07% | -16.11%
Cc1ccc(NC(=O)N(C)C)c(C(=O)OCC(=O)NC2CCCC2)c1 | 9.966% | 14.07%
CNc1ncccc1CN1CCCCC1c1ccnc(N)n1 (stereo unspecified) | 4.941% | -29.8%
CN(C)c1ncnc2c1CCN(C(=O)c1sccc1S(N)(=O)=O)C2 | 12.75% | -1.158%
CC(NC(=O)NCCCN(C)S(C)(=O)=O)c1ccc(F)cc1 (stereo unspecified) | 9.456% | -9.948%
[H][C@@]12CN(Cc3ccoc3)CCO[C@]1([H])CN(C(=O)C1CC(F)(F)C1)C2 | - | 37.85%
CCc1nc(C2CCCN2CCC(=O)N2CCc3ccccc32)no1 (stereo unspecified) | 10.06% | -24.77%
c1cc(OCc2ccc3c(c2)OCCO3)ccc1CNC1CC1 | 3.521% | -
CCN(CC)C(=O)Cn1ccc2cc(NC(=O)COC)ccc21 | 21.86% | -14.23%

For reference, 6 entries once more:

SMILES,LdMetRS,Mtb heat-shock
CN(C)CCOCc1cncc2c1CCN(C1CCOCC1)C2.O=C(O)C(F)(F)F.O=C(O)C(F)(F)F.O=C(O)C(F)(F)F,-,38.62%
OC1COCCN(Cc2cc(-c3ccccc3OC(F)(F)F)no2)C1 (stereo unspecified),5.621%,-12.25%
O=C(c1sccc1Br)N1CCOCC1,19.23%,1.133%
CCc1nc(C2CCCN2CCC(=O)N2CCc3ccccc32)no1 (stereo unspecified),10.06%,-24.77%
Cc1nc(C)n(C2CCCN(C(=O)c3ccnc(N(C)C)c3)C2)n1 (stereo unspecified),8.571%,-10.73%
NC(=O)CCOc1nc(-c2ccccc2Cl)no1,4.433%,-0.7023%